Measurements published in PubChem BioAssay AID228 (DTP/NCI, 2004).
The list shows only some results of the screen, not a fair sample: it covers a few groups of compounds. Other doses and runs of a compound may be missing. T/C: endpoint of the treated group in % of that of the vehicle group. Some entries show no survivor count and are marked so; the dose need not have been tolerated. Schedule codes are those of the source, taken here to give the interval after Q, in days (D) or hours (H), and the number of doses after X.

Test system: BDF1 mice, Friend leukemia sc, tumor weight T/C
Experiment: NCI In Vivo Anticancer Drug Screen. Data for tumor model Friend Virus Leukemia (Solid) (subcutaneous) in B6D2F1 (BDF1) mice
Settings: T/C endpoint: mean tumor weight, schedule: Q01DX011 (ip), evaluation day not shown, higher T/C = larger tumour
Protocol: The antitumor activity of compounds was measured in mice bearing transplantable tumors. Survival or tumor size were measured and the results are expressed as the measurement made in the treated group (T) divided by the measurement made in the vehicle treated control group (C). The tumor model used in this assay is Friend Virus Leukemia (Solid) (subcutaneous) in B6D2F1 (BDF1) mice

With `Cc1cc2nc(CN(CCCl)CCCl)[nH]c2cc1C` the T/C (dose: 15.0 mg/kg/injection, vehicle: carboxymethylcellulose (CMC)) was 82 % of control [survivor count not shown], the T/C (dose: 30.0 mg/kg/injection, vehicle: carboxymethylcellulose (CMC)) was 96 % of control [survivor count not shown] and the T/C (dose: 60.0 mg/kg/injection, vehicle: carboxymethylcellulose (CMC)) was 67 % of control [survivor count not shown].
With `COCc1c(CN(CCCl)CCCl)cnc(C)c1O` the T/C (dose: 3.75 mg/kg/injection, vehicle: saline) was 108 % of control [survivor count not shown] and the T/C (dose: 7.5 mg/kg/injection, vehicle: saline) was 52 % of control [survivor count not shown].
For `ClCCCCC(CCl)NCCCl` (configuration not stated), the T/C (dose: 1.0 mg/kg/injection, vehicle: saline) was 88 % of control [survivor count not shown], the T/C (dose: 2.0 mg/kg/injection, vehicle: saline) was 121 % of control [survivor count not shown] and the T/C (dose: 4.0 mg/kg/injection, vehicle: saline) was 102 % of control [survivor count not shown]. The T/C (dose: 8.7 mg/kg/injection, vehicle: saline) was 57 % of control [survivor count not shown], the T/C (dose: 9.0 mg/kg/injection, vehicle: saline) was 58 % of control [survivor count not shown] and the T/C (dose: 17.5 mg/kg/injection, vehicle: saline) was 46 % of control [survivor count not shown]. For the same compound, the T/C (dose: 35.0 mg/kg/injection, vehicle: saline) was 25 % of control [survivor count not shown].
